Data published in publication PMC6978800, “FAMIN Is a Multifunctional Purine Enzyme Enabling the Purine Nucleotide Cycle” (Cell, 2020).
These are yes or no findings as the source states them, for the method shown.

Target: recombinant human FAMIN (FAMIN^254I) (human) (UniProt Q8IV20)
Test: SEC; Superdex 200 Increase 10/300 of Strep-Tactin purified FAMIN after TEV cleavage of the Strep-tag; fractions checked by Coomassie SDS-PAGE; both purified

- binding: no binding
B1: recombinant human FAMIN (FAMIN^254I) (enzyme, UniProt Q8IV20 1-430)
chain: MAEAVLIDLFGLKLNSQKNCHQTLLKTLNAVQYHHAAKAKFLCIMCCSNISYERDGEQDNCEIETSNGLSALLEEFEIVSCPSMAATLYTIKQKIDEKNLSSIKVIVPRHRKTLMKAFIDQLFTDVYNFEFEDLQVTFRGGLFKQSIEINVITAQELRGIQNEIETFLRSLPALRGKLTIITSSLIPDIFIHGFTTRTGGISYIPTLSSFNLFSSSKRRDPKVVVQENLRRLANAAGFNVEKFYRIKTHHSNDIWIMGRKEPDSYDGITTNQRGVTIAALGADCIPIVFADPVKKACGVAHAGWKGTLLGVAMATVNAMIAEYGCSLEDIVVVLGPSVGPCCFTLPRESAEAFHNLHPACVQLFDSPNPCIDIRKATRILLEQGGILPQNIQDQNQDLNLCTSCHPDKFFSHVRDGLNFGTQIGFISIKE
